Results taken from the supplement of paper PMC12067093, “Discovery and optimisation of a covalent ligand for TRIM25 and its application to targeted protein ubiquitination” (Chemical Science, 2025).
The list shows a part of the results.

Amino acid sequences for entries named in this document (tags omitted). A change or cut given only in a name is not applied to a line headed by its entry.
UniProt O15287: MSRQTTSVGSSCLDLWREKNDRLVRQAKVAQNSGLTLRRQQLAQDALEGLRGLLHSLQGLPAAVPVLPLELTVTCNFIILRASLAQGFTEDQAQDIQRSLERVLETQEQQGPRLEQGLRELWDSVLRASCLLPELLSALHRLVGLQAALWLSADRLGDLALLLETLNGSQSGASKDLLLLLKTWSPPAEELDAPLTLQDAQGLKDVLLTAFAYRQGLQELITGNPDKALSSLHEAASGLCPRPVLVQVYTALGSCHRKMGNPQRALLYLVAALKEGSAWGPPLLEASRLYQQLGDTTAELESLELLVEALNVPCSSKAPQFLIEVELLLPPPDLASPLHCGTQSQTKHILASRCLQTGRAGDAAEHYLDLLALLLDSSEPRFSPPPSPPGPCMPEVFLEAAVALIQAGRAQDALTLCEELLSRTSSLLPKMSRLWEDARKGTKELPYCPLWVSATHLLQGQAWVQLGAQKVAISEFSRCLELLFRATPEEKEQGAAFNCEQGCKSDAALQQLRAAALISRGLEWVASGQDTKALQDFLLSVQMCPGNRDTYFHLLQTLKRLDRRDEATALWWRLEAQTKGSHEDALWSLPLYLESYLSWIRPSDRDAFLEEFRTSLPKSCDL
UniProt Q6PCT2: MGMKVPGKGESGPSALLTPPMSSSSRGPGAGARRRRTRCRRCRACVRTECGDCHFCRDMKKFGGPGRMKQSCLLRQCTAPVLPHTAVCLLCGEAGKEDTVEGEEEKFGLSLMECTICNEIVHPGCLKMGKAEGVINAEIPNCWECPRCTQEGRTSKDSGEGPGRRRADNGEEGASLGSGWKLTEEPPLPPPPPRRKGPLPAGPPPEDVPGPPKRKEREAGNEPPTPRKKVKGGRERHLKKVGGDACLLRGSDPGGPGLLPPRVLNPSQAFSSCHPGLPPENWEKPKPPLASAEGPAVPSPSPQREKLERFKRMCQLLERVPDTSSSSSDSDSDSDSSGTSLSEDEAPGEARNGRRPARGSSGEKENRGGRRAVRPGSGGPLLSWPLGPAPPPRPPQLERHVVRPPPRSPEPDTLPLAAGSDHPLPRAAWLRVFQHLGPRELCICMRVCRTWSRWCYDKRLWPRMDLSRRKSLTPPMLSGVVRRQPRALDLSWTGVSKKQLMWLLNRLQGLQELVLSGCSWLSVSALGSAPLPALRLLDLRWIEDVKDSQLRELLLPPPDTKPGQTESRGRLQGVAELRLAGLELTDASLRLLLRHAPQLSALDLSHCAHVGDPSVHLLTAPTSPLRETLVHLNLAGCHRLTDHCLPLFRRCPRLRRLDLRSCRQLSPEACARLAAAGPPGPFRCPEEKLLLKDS
UniProt Q9NSD9: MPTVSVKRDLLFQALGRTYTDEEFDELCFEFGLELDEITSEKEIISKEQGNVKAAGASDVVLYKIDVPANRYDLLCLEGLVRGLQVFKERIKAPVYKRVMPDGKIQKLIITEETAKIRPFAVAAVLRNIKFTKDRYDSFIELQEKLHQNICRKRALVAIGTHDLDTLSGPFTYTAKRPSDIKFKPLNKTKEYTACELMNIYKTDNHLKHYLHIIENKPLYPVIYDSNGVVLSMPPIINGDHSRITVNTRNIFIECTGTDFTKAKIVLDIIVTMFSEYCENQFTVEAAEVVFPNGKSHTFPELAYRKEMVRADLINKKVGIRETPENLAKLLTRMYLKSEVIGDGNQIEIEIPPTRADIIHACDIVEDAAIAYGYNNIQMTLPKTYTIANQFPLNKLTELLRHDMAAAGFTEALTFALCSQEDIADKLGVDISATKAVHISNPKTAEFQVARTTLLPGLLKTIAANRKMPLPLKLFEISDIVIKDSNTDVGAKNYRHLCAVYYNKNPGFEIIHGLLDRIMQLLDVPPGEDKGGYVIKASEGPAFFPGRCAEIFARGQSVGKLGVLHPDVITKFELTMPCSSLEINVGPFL
UniProt Q8TB52: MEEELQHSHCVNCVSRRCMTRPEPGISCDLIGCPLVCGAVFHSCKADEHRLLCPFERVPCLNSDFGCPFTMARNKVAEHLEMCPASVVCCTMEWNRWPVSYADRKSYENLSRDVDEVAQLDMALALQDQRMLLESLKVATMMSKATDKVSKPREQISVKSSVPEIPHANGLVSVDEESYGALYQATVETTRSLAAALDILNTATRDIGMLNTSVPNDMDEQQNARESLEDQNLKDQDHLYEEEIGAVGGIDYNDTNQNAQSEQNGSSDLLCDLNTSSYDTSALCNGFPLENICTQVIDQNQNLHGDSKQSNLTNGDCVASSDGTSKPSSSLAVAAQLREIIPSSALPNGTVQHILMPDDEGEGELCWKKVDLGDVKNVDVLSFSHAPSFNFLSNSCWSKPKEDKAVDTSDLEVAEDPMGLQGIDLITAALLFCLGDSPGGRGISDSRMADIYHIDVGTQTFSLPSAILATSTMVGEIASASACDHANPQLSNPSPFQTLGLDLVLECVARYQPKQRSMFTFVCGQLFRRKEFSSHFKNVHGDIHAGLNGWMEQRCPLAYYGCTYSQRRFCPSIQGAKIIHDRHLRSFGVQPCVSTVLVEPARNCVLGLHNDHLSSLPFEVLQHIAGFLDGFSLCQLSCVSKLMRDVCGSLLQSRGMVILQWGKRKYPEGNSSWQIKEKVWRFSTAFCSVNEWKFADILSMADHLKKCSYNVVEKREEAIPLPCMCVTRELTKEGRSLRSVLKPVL
UniProt Q96K12: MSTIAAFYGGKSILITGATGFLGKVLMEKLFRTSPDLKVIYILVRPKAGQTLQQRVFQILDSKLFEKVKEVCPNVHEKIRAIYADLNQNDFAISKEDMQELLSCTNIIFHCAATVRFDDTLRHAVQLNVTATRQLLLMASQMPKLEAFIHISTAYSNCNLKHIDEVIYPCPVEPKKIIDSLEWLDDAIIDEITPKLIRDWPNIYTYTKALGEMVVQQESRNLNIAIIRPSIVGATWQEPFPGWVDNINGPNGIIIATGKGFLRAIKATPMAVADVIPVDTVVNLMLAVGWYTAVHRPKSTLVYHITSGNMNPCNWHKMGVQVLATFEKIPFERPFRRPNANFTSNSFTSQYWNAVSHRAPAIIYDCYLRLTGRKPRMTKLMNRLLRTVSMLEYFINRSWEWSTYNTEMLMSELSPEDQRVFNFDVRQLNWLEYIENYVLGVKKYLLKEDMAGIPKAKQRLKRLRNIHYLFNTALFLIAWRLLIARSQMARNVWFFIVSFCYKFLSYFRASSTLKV
UniProt Q52LJ0: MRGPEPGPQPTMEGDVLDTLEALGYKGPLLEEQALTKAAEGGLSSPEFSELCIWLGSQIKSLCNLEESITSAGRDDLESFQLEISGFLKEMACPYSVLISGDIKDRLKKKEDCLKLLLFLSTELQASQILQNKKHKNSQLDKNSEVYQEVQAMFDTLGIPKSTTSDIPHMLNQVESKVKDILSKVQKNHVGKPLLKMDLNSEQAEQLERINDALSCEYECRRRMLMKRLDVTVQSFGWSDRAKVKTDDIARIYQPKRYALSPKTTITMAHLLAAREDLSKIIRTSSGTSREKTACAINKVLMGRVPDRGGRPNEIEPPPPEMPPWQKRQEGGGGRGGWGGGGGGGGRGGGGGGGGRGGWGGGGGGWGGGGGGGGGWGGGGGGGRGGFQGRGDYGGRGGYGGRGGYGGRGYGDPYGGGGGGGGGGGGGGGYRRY
UniProt Q9BZQ8: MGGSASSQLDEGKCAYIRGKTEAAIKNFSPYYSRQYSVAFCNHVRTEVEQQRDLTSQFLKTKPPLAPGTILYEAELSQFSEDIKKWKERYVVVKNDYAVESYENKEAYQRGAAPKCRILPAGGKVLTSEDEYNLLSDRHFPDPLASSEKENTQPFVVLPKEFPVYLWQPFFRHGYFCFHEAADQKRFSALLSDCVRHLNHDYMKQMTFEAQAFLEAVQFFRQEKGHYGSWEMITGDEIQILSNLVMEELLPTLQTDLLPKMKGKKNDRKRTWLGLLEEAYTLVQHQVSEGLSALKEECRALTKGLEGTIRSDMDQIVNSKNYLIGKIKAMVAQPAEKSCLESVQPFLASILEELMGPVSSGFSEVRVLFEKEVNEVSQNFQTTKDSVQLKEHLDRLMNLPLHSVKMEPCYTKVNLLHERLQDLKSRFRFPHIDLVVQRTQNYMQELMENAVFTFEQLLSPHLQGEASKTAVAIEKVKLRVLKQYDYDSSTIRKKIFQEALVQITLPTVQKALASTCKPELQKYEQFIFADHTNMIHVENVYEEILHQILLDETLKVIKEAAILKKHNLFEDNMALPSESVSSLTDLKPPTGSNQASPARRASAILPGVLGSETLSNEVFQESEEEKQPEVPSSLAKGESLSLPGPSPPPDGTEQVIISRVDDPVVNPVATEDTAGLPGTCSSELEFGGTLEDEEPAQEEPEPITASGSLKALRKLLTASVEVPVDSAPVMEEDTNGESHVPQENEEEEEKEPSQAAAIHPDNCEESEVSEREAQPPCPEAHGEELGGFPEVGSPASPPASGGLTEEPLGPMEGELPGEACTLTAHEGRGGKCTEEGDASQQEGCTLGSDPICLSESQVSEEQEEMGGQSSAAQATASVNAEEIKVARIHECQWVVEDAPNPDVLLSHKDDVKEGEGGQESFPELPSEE
UniProt P0C2W1: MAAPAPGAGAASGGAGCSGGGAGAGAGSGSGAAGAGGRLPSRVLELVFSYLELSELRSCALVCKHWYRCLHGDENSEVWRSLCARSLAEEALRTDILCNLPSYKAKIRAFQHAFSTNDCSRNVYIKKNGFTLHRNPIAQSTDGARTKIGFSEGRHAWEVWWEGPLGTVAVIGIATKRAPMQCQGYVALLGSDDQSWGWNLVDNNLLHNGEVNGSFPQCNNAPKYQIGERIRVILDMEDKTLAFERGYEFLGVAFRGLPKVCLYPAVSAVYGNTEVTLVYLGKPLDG
UniProt P12318: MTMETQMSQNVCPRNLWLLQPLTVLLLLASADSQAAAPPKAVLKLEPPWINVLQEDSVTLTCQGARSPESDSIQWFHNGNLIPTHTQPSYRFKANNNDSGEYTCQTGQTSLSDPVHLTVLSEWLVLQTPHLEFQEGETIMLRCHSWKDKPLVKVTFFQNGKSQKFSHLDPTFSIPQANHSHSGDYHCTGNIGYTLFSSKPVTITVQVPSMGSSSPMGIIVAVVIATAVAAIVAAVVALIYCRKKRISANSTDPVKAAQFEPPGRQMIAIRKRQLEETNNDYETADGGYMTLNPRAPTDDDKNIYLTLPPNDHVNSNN
UniProt Q9BXW9: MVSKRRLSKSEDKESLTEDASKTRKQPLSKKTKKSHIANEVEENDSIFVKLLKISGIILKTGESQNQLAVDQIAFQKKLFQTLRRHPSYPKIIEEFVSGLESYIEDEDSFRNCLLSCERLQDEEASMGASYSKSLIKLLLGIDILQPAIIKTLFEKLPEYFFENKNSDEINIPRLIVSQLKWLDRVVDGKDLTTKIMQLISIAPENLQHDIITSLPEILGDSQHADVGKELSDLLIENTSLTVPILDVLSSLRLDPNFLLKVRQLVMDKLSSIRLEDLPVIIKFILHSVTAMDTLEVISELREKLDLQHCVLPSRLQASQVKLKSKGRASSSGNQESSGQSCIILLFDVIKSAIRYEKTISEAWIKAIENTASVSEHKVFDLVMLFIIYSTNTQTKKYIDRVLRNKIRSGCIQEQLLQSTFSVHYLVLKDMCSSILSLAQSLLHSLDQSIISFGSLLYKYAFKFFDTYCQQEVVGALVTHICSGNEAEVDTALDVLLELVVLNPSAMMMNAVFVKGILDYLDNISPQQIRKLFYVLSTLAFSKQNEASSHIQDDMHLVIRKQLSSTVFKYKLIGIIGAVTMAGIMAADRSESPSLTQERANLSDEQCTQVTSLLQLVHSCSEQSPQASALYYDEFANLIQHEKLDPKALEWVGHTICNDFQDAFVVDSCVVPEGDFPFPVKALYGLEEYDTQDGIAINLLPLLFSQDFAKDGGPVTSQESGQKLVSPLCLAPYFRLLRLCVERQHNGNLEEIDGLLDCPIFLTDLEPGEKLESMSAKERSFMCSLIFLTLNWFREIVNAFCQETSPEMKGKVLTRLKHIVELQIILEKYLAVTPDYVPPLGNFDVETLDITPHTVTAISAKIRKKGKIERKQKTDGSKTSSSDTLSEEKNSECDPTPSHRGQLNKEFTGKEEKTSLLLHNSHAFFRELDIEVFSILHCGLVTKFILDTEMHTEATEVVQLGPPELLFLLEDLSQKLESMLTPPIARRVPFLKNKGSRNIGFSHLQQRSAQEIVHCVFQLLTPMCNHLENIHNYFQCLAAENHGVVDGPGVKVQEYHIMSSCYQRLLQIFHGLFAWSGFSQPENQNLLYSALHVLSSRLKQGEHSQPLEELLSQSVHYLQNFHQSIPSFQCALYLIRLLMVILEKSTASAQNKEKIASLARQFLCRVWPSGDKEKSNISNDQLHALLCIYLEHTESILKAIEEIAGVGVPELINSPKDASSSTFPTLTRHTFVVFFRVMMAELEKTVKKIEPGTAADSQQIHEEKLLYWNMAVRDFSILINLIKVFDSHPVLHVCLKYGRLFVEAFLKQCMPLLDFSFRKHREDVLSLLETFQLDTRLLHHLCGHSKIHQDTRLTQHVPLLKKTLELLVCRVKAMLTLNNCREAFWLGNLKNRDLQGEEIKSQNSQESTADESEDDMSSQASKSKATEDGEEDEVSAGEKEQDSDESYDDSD

Compound: CC1Cc2ccccc2N1C(=O)C1CCCN(C1)C(=O)CCl (mixture of isomers) [TRIM25 ligand 11 (diastereomer mixture)]
Experiment: probe-labelled cysteine peptide fold change vs DMSO (competition) (log2 fold change); higher = less target engagement (more negative = stronger competition)
Conditions: 50 µM; THP-1; incubation time: 4 h
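Also: competitive chemoproteomic profiling in live THP-1 cells with an iodoacetamide desthiobiotin (IA-DTB) probe, comparing probe-labelled peptide intensities in compound-treated cells against DMSO-treated controls.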

Row | Target | probe-labelled cysteine peptide fold change
1 | FBP1_P09467_39_GTGELTQLLNSLCTAVK (UniProt P09467) | 0.0125
2 | FANCG_O15287_503_EQGAAFNCEQGCK (UniProt O15287) | 0.106
3 | FBXL19_Q6PCT2_637_ETLVHLNLAGCHR (UniProt Q6PCT2) | -0.0306
4 | FARSB_Q9NSD9_498_HLCAVYYNK (UniProt Q9NSD9) | 0.0475
5 | FBXO30_Q8TB52_725_EEAIPLPCMCVTR (UniProt Q8TB52) | 0.153
6 | FASN_P49327_1828_CTVFHGAQVEDAFR (UniProt P49327) | 0.0378
7 | FBLN1_P23142_109_CCHCCLLGR (UniProt P23142) | 0.223
8 | FAR2_Q96K12_104+111_EDMQELLSCTNIIFHCAATVR (UniProt Q96K12) | 0.0839
9 | FAR1_Q8WVX9_111_EVIIDSTNIIFHCAATVR (UniProt Q8WVX9) | 0.222
10 | FASTKD1_Q53R41_673_SVCLECPEFQIPWFHDR (UniProt Q53R41) | 0.192
11 | FASTKD2_Q9NYY8_366_SLILLDECSK (UniProt Q9NYY8) | 0.0015
12 | FASN_P49327_2369_AKLTPGCEAEAETEAICFFVQQFTDMEHNR (UniProt P49327) | -0.005
13 | FAM136A_Q96C01_53_QVHQCIER (UniProt Q96C01) | 0.0164
14 | FAM208B_Q5VWN6_1432_LHGTQCEK (UniProt Q5VWN6) | -0.193
15 | FAT1_Q14517_574_INCEGTIPR (UniProt Q14517) | 0.204
16 | FAM98B_Q52LJ0_93_EMACPYSVLISGDIK (UniProt Q52LJ0) | 0.0561
17 | FAM76B_Q5HYJ3_73_PCQYCNIIAAFIGTK (UniProt Q5HYJ3) | -0.0696
18 | FBXL12_Q9NXK8_134_TLELHSCEISMAWLHK (UniProt Q9NXK8) | 0.00204
19 | FAM129A_Q9BZQ8_891_IHECQWVVEDAPNPDVLLSHK (UniProt Q9BZQ8) | -0.235
20 | FBXO45_P0C2W1_119_AFQHAFSTNDCSR (UniProt P0C2W1) | 0.0956

Row | Target | probe-labelled cysteine peptide fold change
21 | FASN_P49327_1227_ACLDTAVENMPSLK (UniProt P49327) | -0.0704
22 | FAM98C_Q17RN3_340_REDGGPQCWGR (UniProt Q17RN3) | -0.539
23 | FBXO30_Q8TB52_90_VAEHLEMCPASVVCCTMEWNR (UniProt Q8TB52) | -0.504
24 | FAM98B_Q52LJ0_220_INDALSCEYECR (UniProt Q52LJ0) | 0.0911
25 | FECH_P22830_403_QLTLSCPLCVNPVCR (UniProt P22830) | 0.0221
26 | FARSB_Q9NSD9_255_NIFIECTGTDFTK (UniProt Q9NSD9) | 0.157
27 | FAM129A_Q9BZQ8_177_HGYFCFHEAADQK (UniProt Q9BZQ8) | 0.116
28 | FBN2_P35556_1812_AVDIDECK (UniProt P35556) | 0.0853
29 | FER_P16591-3_23_DQLESGFGSQSCK (UniProt P16591) | -0.221
30 | FCGR2A_P12318_62_LEPPWINVLQEDSVTLTCQGAR (UniProt P12318) | 0.0582
31 | FCGRT_P55899_275_SGDEHHYCCIVQHAGLAQPLR (UniProt P55899) | -0.0259
32 | FASN_P49327_2010_EACPELDYFVVFSSVSCGR (UniProt P49327) | 0.0474
33 | FES_P07332_372_QVLQEALQGLQVALCSQAK (UniProt P07332) | -0.126
34 | FBXL20_Q96IG2_351+364_HLGNGACAHDQLEVIELDNCPLITDASLEHLK (UniProt Q96IG2) | 0.00526
35 | FANCI_Q9NVI1_594_CLSQQADVR (UniProt Q9NVI1) | 0.0694
36 | FERMT3_Q86UX7_439_CQDEQQYAR (UniProt Q86UX7) | 0.246
37 | FANCD2_Q9BXW9_729_LVSPLCLAPYFR (UniProt Q9BXW9) | 0.0371
38 | FBN2_P35556_1162_NCMDIDECERNPLLCR (UniProt P35556) | 0.136
39 | FBXL19_Q6PCT2_644_LTDHCLPLFR (UniProt Q6PCT2) | -0.18
